The results in this text go back to paper PMC7438112.

Protein sequences, listed by entry. Tags and fused reporters are not part of them.
UniProt Q14839: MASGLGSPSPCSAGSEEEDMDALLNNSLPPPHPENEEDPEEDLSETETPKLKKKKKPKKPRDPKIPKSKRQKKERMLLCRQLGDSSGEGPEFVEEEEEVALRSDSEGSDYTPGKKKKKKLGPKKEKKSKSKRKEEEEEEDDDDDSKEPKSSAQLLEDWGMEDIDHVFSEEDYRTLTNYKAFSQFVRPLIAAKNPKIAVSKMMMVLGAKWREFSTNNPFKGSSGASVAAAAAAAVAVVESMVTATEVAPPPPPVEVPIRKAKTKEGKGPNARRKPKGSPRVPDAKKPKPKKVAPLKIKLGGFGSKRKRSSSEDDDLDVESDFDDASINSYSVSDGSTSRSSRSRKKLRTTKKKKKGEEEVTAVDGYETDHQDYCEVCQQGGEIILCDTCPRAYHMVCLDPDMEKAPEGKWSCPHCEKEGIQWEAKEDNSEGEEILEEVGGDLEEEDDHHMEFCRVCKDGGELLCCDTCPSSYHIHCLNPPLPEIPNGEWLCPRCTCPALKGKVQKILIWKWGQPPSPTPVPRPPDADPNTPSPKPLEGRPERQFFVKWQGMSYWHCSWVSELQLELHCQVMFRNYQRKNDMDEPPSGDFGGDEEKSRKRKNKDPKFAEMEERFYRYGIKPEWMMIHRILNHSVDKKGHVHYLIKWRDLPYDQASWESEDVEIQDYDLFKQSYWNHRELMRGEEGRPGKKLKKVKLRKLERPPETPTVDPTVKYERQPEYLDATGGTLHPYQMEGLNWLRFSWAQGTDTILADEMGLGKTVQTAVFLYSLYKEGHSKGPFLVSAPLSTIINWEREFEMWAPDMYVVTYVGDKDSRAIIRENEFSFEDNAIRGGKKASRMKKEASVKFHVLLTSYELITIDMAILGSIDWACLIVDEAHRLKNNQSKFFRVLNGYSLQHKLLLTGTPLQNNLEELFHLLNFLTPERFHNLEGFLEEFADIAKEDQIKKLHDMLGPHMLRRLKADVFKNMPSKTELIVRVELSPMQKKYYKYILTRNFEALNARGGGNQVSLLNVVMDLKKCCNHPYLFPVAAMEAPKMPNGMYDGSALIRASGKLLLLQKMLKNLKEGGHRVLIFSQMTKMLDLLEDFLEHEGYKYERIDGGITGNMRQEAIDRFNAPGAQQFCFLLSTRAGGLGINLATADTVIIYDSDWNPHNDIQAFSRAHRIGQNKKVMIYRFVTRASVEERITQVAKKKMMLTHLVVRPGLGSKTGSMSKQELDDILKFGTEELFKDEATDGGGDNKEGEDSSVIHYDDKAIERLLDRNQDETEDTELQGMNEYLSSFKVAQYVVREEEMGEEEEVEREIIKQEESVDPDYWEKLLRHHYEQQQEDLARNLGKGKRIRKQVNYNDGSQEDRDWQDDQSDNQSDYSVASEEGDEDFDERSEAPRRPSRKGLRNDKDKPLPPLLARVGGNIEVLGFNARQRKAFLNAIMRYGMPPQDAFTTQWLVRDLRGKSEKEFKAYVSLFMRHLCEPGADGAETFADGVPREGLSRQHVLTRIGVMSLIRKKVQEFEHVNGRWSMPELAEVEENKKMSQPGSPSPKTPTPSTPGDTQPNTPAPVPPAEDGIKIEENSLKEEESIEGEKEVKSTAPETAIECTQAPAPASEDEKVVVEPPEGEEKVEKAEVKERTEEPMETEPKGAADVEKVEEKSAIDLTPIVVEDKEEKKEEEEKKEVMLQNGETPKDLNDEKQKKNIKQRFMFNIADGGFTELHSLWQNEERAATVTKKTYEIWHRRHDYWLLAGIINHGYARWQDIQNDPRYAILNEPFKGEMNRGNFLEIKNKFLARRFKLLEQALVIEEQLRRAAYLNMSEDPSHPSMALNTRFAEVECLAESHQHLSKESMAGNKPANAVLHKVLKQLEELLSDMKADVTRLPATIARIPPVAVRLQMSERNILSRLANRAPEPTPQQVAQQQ
UniProt Q03164: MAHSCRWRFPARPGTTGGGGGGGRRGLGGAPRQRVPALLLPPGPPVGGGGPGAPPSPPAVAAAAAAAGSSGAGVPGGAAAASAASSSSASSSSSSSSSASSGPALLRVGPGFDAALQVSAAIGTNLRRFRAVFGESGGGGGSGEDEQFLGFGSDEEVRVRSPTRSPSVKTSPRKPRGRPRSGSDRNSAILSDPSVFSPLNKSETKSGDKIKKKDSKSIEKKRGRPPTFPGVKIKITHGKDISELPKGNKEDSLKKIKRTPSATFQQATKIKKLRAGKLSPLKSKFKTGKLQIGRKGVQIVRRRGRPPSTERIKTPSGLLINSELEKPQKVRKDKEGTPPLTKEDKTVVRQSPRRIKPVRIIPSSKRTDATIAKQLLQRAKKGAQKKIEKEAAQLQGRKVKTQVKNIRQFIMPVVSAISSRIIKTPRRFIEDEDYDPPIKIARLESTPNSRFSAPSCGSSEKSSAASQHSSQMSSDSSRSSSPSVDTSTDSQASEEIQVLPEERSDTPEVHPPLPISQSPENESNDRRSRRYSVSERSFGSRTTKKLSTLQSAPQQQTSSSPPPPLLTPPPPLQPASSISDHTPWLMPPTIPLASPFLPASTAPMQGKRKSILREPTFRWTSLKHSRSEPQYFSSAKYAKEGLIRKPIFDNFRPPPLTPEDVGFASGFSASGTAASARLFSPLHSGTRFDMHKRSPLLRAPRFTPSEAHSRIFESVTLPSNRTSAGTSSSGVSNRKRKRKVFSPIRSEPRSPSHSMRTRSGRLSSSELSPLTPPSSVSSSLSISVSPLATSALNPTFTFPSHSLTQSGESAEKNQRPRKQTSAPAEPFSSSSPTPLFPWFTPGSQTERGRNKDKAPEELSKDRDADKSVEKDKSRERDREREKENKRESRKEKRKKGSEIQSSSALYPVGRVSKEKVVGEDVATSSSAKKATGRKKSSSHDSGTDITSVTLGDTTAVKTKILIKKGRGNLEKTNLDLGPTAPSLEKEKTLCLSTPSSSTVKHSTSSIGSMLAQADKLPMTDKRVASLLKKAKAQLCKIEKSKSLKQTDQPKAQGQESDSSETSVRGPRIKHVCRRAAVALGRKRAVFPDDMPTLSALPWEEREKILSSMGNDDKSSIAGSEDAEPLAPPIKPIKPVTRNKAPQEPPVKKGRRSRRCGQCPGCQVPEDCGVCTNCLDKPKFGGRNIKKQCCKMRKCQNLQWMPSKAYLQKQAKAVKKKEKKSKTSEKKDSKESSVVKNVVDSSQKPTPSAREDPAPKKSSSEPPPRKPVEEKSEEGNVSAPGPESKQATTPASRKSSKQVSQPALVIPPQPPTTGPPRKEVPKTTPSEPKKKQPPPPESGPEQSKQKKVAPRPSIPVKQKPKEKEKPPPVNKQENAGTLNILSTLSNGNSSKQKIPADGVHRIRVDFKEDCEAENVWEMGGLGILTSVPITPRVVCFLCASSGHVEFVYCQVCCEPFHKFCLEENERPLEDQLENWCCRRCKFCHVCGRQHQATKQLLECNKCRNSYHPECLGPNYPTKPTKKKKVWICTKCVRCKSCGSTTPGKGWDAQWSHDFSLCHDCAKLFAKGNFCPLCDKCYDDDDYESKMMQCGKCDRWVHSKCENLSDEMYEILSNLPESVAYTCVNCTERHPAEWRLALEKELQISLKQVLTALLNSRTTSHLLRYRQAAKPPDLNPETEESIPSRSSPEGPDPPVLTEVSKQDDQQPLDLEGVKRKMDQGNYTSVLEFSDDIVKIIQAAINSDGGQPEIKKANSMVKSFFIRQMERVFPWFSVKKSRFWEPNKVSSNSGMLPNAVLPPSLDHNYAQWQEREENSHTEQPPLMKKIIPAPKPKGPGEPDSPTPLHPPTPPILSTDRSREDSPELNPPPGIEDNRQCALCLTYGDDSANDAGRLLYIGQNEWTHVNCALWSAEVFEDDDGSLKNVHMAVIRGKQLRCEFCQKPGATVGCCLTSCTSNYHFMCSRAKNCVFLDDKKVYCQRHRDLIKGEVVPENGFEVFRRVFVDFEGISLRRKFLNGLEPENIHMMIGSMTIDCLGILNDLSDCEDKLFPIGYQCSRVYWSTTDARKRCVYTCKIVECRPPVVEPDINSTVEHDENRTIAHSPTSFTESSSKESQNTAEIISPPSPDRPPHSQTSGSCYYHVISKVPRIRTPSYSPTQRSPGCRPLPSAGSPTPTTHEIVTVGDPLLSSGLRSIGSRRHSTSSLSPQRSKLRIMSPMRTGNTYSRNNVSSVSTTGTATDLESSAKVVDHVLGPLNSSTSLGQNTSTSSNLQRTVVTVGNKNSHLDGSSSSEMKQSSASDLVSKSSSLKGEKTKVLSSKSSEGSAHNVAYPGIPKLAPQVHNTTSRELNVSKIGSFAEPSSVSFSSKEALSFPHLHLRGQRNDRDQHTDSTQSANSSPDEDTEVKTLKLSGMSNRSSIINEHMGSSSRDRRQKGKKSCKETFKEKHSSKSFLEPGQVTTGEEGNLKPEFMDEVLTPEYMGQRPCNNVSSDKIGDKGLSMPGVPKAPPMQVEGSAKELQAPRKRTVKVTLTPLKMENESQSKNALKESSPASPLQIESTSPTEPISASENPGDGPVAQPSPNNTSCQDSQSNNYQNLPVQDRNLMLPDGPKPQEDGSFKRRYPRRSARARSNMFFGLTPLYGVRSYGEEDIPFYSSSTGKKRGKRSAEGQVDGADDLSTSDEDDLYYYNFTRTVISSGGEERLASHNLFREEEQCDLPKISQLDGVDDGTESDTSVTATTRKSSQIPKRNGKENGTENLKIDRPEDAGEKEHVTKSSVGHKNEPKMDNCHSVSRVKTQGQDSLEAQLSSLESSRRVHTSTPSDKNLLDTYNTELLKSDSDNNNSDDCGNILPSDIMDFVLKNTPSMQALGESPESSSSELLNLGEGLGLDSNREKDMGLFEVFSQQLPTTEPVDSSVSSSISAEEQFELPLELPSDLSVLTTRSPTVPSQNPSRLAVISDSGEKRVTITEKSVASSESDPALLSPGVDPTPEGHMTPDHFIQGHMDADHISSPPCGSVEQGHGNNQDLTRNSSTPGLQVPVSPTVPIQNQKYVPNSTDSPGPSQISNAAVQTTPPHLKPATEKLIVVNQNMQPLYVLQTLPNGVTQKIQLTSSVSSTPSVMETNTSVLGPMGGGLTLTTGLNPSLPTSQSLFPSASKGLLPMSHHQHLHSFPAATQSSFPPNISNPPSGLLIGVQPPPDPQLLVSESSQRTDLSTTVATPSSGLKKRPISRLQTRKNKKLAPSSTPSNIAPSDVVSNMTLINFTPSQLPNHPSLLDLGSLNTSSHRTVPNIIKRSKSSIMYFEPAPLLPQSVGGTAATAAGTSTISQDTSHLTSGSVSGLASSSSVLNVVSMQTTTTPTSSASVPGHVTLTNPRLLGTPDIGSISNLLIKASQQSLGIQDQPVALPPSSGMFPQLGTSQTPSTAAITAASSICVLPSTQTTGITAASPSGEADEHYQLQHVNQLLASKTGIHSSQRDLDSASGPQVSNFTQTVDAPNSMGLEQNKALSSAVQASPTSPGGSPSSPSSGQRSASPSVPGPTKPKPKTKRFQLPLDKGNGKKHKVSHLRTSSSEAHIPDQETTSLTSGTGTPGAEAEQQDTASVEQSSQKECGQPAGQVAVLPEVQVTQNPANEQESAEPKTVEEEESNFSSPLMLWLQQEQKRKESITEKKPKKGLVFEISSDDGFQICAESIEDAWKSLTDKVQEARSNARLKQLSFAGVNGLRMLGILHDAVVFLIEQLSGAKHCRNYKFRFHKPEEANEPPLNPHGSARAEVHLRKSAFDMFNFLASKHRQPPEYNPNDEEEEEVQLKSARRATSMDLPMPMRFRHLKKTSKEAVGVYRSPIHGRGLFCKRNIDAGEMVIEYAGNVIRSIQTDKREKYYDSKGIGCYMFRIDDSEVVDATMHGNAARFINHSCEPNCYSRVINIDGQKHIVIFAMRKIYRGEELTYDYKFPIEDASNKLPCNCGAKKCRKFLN

For this experiment, the target named is endogenous CHD4 (chromodomain-helicase-DNA-binding protein 4) with a 3xFlag tag knocked in (human (endogenous in RH4)) (UniProt Q14839). Put plainly: affinity purification with mass spectrometry; anti-Flag (M2) on Protein G Dynabeads, overnight with nuclear extracts of RH4 N-CHD4 and C-CHD4 knock-in lines (lysis buffer 50 mM HEPES pH 7.8, 3 mM MgCl2, 300 mM NaCl, with benzonase, 4°C); eluted with 3xFlag peptide; LC-MS; scored with SAINTexpress against RH4 wildtype and CRAPome controls (fold change at least 2, SAINT score above 0.6).

Results are given in words; binding and its absence hold for the method and conditions named. Binding seen in cells or lysates may run through a third protein. These calls come from enrichment with a bait or labelling near it, and not all partners need be listed.

Take BRD2 (from UniProt P25440 1-801): the binding entry is listed as “binds”.

For the substance EHMT1 (from UniProt Q9H9B1 1-1298), the binding result is “binds”.

As to EHMT2 (from UniProt Q96KQ7 1-1210), the binding entry is on record as “binds”.

On to KMT2A (from UniProt Q03164 1-3969), for which the binding entry is reported as “binds”.
